Results deposited as PubChem BioAssay AID1224828 (NIAID, 2016)
Test: 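Knock-downs that increase or decrease LPS-induced p65 nuclear translocation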 (primary screen). Cells: mouse RAW264.7 G9 macrophage reporter cells (GFP-p65, Tnf promoter-mCherry). Reagents: siRNA pool against mouse genes, 100 nM. Time to read-out: 2 days siRNA transfection, then 40 min LPS before fixation. Treatment: LPS (Salmonella minnesota R595) at 10 ng/ml. Detection: 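Microscopy ratio of nuclear to perinuclear-ring GFP-p65 signal, scaled to the plate median; gene score is the average of two replicate robust z-scores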. Reading the numbers: p65 translocation robust z-score: higher = more nuclear NF-kappaB p65 after LPS than the plate median; nuclear/cytoplasmic p65 ratio: higher = more nuclear NF-kappaB p65. Rule for the call: 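Called active when z exceeds 3.3 or falls under -1.56 (median of Tlr4 controls), giving activity score of at least 50; no calls for control wells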. Calls: active = hit (p65 shift raised or lowered); inactive = no clear change.
Here is a random part of about 17,000 reagents tested. 762 of all reagents (4.5%) were called active. 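Active calls include both raised and lowered p65 entry, mostly lowered; wells with fewer than 50 cells lack a z-score.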 The raw values are shown without normalisation. The numbers tell different reagents against one gene apart. A reagent listed more than once was tested more than once; the source does not tell the runs apart.

| target | reagent no. | p65 translocation robust z-score | nuclear/cytoplasmic p65 ratio, rep 1 | nuclear/cytoplasmic p65 ratio, rep 2 | low cell count flag | Call |
| --- | --- | --- | --- | --- | --- | --- |
| Apobr | 1 | -0.85 | 1.51 | 1.47 | enough cells to score | inactive |
| Zcchc8 | 1 | 0.26 | 1.44 | 1.29 | enough cells to score | inactive |
| Cd72 | 1 | -0.44 | 1.44 | 1.32 | enough cells to score | inactive |
| Tmem239 | 1 | 0.76 | 1.49 | 1.54 | enough cells to score | inactive |
| Postn | 1 | -0.72 | 1.39 | 1.33 | enough cells to score | inactive |
| Serpinc1 | 1 | 0.34 | 1.57 | 1.63 | enough cells to score | inactive |
| Tmem164 | 1 | 0.16 | 1.54 | 1.62 | enough cells to score | inactive |
| Sft2d1 | 1 | -0.82 | 1.26 | 1.36 | enough cells to score | inactive |
| F13a1 | 1 | 1.15 | 1.65 | 1.49 | enough cells to score | inactive |
| Atmin | 1 | -0.75 | 1.37 | 1.37 | enough cells to score | inactive |
| Tmem120a | 1 | – | 1.48 | 1.05 | fewer than 50 cells per well; well left out of scoring | inactive |
| Cdkn2d | 1 | 2.28 | 2.11 | 1.62 | enough cells to score | inactive |
| Zcchc12 | 1 | 0.3 | 1.54 | 1.4 | enough cells to score | inactive |
| A730089K16Rik | 1 | 1.31 | 1.66 | 1.71 | enough cells to score | inactive |
| Rpl10 | 1 | 1.33 | 1.6 | 1.26 | enough cells to score | inactive |
| Zkscan1 | 1 | – | 1.2 | 1.48 | fewer than 50 cells per well; well left out of scoring | inactive |
| Olfm3 | 1 | 0.44 | 1.71 | 1.66 | enough cells to score | inactive |
| Raet1b | 1 | 0.33 | 1.32 | 1.34 | enough cells to score | inactive |
| Cd59a | 1 | -0.18 | 1.26 | 1.36 | enough cells to score | inactive |
| Dock8 | 1 | – | 1.18 | 1.37 | fewer than 50 cells per well; well left out of scoring | inactive |
| Dock8 | 2 | -0.35 | 1.32 | 1.43 | enough cells to score | inactive |
| Gpatch11 | 1 | – | 1.31 | 1.24 | fewer than 50 cells per well; well left out of scoring | inactive |
| Jag1 | 1 | 0.19 | 1.46 | 1.45 | enough cells to score | inactive |
| Opalin | 1 | – | 1.33 | 1.16 | fewer than 50 cells per well; well left out of scoring | inactive |
| Pantr1 | 1 | – | 1.54 | 1.19 | fewer than 50 cells per well; well left out of scoring | inactive |
| Kif1a | 1 | -1.34 | 1.28 | 1.22 | enough cells to score | inactive |
| Pigk | 1 | -0.37 | 1.25 | 1.2 | enough cells to score | inactive |
| Puf60 | 1 | -0.04 | 1.4 | 1.95 | enough cells to score | inactive |
| Nedd4l | 1 | 1.39 | 1.63 | 1.51 | enough cells to score | inactive |
| Lamb3 | 1 | 1.46 | 1.66 | 1.58 | enough cells to score | inactive |
| Comtd1 | 1 | -0.79 | 1.44 | 1.67 | enough cells to score | inactive |
| Samd4b | 1 | 1.91 | 1.73 | 1.75 | enough cells to score | inactive |
| Wnt8a | 1 | -0.49 | 1.45 | 1.43 | enough cells to score | inactive |
| Hsd3b1 | 1 | – | 1.16 | 1.17 | fewer than 50 cells per well; well left out of scoring | inactive |
| Or5g26 | 1 | 0.69 | 1.72 | 1.51 | enough cells to score | inactive |
| Plaat3 | 1 | -1.85 | 1.32 | 1.32 | enough cells to score | active |
| Bcl3 | 1 | 0.75 | 1.68 | 1.77 | enough cells to score | inactive |
| Blvra | 1 | 0.26 | 1.74 | 1.57 | enough cells to score | inactive |
| 5830411J07Rik | 1 | -2.13 | 1.18 | 1.18 | enough cells to score | active |
| Slc30a1 | 1 | – | 1.27 | 1.17 | fewer than 50 cells per well; well left out of scoring | inactive |
| Ffar1 | 1 | -0.57 | 1.39 | 1.54 | enough cells to score | inactive |
| Cyp11b2 | 1 | -0.25 | 1.43 | 1.36 | enough cells to score | inactive |
| Smtn | 1 | 0.6 | 1.67 | 1.6 | enough cells to score | inactive |
| Hr | 1 | -0.71 | 1.28 | 1.34 | enough cells to score | inactive |
| Mki67 | 1 | 0.81 | 1.51 | 1.48 | enough cells to score | inactive |
| C2cd2 | 1 | 0.22 | 1.46 | 1.42 | enough cells to score | inactive |
| Fbxo38 | 1 | -0.87 | 1.43 | 1.38 | enough cells to score | inactive |
| Tmem242 | 1 | – | 1.31 | 1.25 | fewer than 50 cells per well; well left out of scoring | inactive |
| Otub2 | 1 | – | 1.07 | 0.95 | fewer than 50 cells per well; well left out of scoring | inactive |
| Hsfy2 | 1 | 0.07 | 1.63 | 1.62 | enough cells to score | inactive |
| Pou3f4 | 1 | 0.37 | 1.54 | 1.46 | enough cells to score | inactive |
| Or5w10 | 1 | -1.62 | 1.43 | 1.33 | enough cells to score | active |
| Ftsj3 | 1 | 2.11 | 1.94 | 1.71 | enough cells to score | inactive |
| Setd1a | 1 | -1.36 | 1.48 | 1.35 | enough cells to score | inactive |
| Setd1a | 2 | -1.34 | 1.32 | 1.69 | enough cells to score | inactive |
| Sh3bp5 | 1 | -1.24 | 1.23 | 1.4 | enough cells to score | inactive |
| Bmp4 | 1 | -0.42 | 1.58 | 1.52 | enough cells to score | inactive |
| Becn1 | 1 | -1.45 | 1.29 | 1.32 | enough cells to score | inactive |
| Mycbp | 1 | -0.51 | 1.76 | 1.47 | enough cells to score | inactive |
| Dysf | 1 | 0.73 | 1.66 | 1.4 | enough cells to score | inactive |
| Or13f5 | 1 | -0.78 | 1.46 | 1.35 | enough cells to score | inactive |
| Or51e1 | 1 | -1.53 | 1.29 | 1.31 | enough cells to score | inactive |
| Neurod1 | 1 | -2.54 | 1.11 | 1.03 | enough cells to score | active |
| Ttc12 | 1 | – | 1.5 | 1.11 | fewer than 50 cells per well; well left out of scoring | inactive |
| Gdpd4 | 1 | 2.04 | 1.44 | 1.49 | enough cells to score | inactive |
| Klra5 | 1 | -0.21 | 1.42 | 1.38 | enough cells to score | inactive |
| H3c15 | 1 | 0.06 | 0 | 1.57 | enough cells to score | inactive |
| Afp | 1 | 0.05 | 1.62 | 1.64 | enough cells to score | inactive |
| Btk | 1 | 2.11 | 1.35 | 1.65 | enough cells to score | inactive |
| 2310030G06Rik | 1 | – | 1.33 | 1.2 | fewer than 50 cells per well; well left out of scoring | inactive |
| Tmem14a | 1 | 1.37 | 1.44 | 1.75 | enough cells to score | inactive |
| Myh3 | 1 | -1.2 | 1.18 | 1.2 | enough cells to score | inactive |
| Klhdc1 | 1 | -0.65 | 1.41 | 1.39 | enough cells to score | inactive |
| Sigmar1 | 1 | -1.34 | 1.27 | 1.24 | enough cells to score | inactive |
| Trpd52l3 | 1 | -0.25 | 1.51 | 1.35 | enough cells to score | inactive |
| Trpd52l3 | 1 | – | 1.26 | 1.22 | fewer than 50 cells per well; well left out of scoring | inactive |
